No constants are given. Whether binding was seen depends on the method and setting. In cells and extracts the contact can be indirect. Binding calls can cover weak binding; strength is not graded here. Tags and fused reporters may be left off the sequences shown.
Tests used:
GFP-R1-5 (human) = experiment: pull-down
GFP-R1-6 (human) = experiment: pull-down

binding (GFP-R1-5 (human)): binds | binding (GFP-R1-6 (human)): binds
B1: GST-Sec23IP (protein, UniProt Q9Y6Y8 1-1000)
chain: MAERKPNGGSGGASTSSSGTNLLFSSSATEFSFNVPFIPVTQASASPASLLLPGEDSTDVGEEDSFLGQTSIHTSAPQTFSYFSQVSSSSDPFGNIGQSPLTTAATSVGQSGFPKPLTALPFTTGSQDVSNAFSPSISKAQPGAPPSSLMGINSYLPSQPSSLPPSYFGNQPQGIPQPGYNPYRHTPGSSRANPYIAPPQLQQCQTPGPPAHPPPSGPPVQMYQMPPGSLPPVPSSVQSPAQQQVPARPGAPSVQVPSPFLLQNQYEPVQPHWFYCKEVEYKQLWMPFSVFDSLNLEEIYNSVQPDPESVVLGTDGGRYDVYLYDRIRKAAYWEEEPAEVRRCTWFYKGDTDSRFIPYTEEFSEKLEAEYKKAVTTNQWHRRLEFPSGETIVMHNPKVIVQFQPSSVPDEWGTTQDGQTRPRVVKRGIDDNLDEIPDGEMPQVDHLVFVVHGIGPVCDLRFRSIIECVDDFRVVSLKLLRTHFKKSLDDGKVSRVEFLPVHWHSSLGGDATGVDRNIKKITLPSIGRFRHFTNETLLDILFYNSPTYCQTIVEKVGMEINHLHALFMSRNPDFKGGVSVAGHSLGSLILFDILSNQKDLNLSKCPGPLAVANGVVKQLHFQEKQMPEEPKLTLDESYDLVVENKEVLTLQETLEALSLSEYFSTFEKEKIDMESLLMCTVDDLKEMGIPLGPRKKIANFVEHKAAKLKKAASEKKAVAATSTKGQEQSAQKTKDMASLPSESNEPKRKLPVGACVSSVCVNYESFEVGAGQVSVAYNSLDFEPEIFFALGSPIAMFLTIRGVDRIDENYSLPTCKGFFNIYHPLDPVAYRLEPMIVPDLDLKAVLIPHHKGRKRLHLELKESLSRMGSDLKQGFISSLKSAWQTLNEFARAHTSSTQLQEELEKVANQIKEEEEKQVVEAEKVVESPDFSKDEDYLGKVGMLNGGRRIDYVLQEKPIESFNEYLFALQSHLCYWESEDTALLLLKEIYRTMNISPEQPQH

From doi:10.1101/2024.02.28.582656
